# In the supplement of paper PMC8728848:
# The other results are listed elsewhere or left out.
# How the values were obtained:
# Test in all cases: glycan array binding signal (z-score within array); higher = stronger binding
# Settings in all cases: glycan notation: IUPAC condensed, linker removed
# [1] = molecular target: Fuc(a1-2)Gal(b1-4)GlcNAc(b1-3)Gal(b1-4)GlcNAc(b1-2)Man(a1-3)[Fuc(a1-2)Gal(b1-4)GlcNAc(b1-3)Gal(b1-4)GlcNAc(b1-2)Man(a1-6)]Man(b1-4)GlcNAc(b1-4)GlcNAc
# Procedure, shortened: (§1)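 Columns mapping to the same glycan were averaged after glycan names were converted to IUPAC-condensed notation. The data come from 3228 arrays in the Consortium for Functional Glycomics database, limited to those with an available protein sequence. Binding is reported as a within-array Z-score averaged across arrays of one protein sequence and across linkers.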
# [2] = molecular target: Fuc(a1-2)Gal(b1-4)GlcNAc(b1-3)Gal(b1-4)GlcNAc(b1-3)Gal(b1-4)GlcNAc
# Procedure, shortened: as §1
# [3] = molecular target: Fuc(a1-2)Gal(b1-4)GlcNAc(b1-3)GalNAc
# Procedure, shortened: as §1
# [4] = molecular target: Fuc(a1-2)Gal(b1-4)GlcNAc(b1-3)[Fuc(a1-2)Gal(b1-4)GlcNAc(b1-6)]GalNAc
# Procedure, shortened: as §1
# [5] = molecular target: Fuc(a1-2)Gal(b1-4)GlcNAc(b1-3)[Fuc(a1-3)[Gal(b1-4)]GlcNAc(b1-6)]Gal(b1-4)Glc
# Procedure, shortened: as §1
# [6] = molecular target: Fuc(a1-2)Gal(b1-4)GlcNAc(b1-6)GalNAc
# Procedure, shortened: as §1
# [7] = molecular target: Fuc(a1-2)Gal(b1-4)GlcNAc6S
# Procedure, shortened: as §1
# [8] = molecular target: Fuc(a1-2)Gal(b1-4)[Fuc(a1-3)]GlcNAc
# Procedure, shortened: as §1
# [9] = molecular target: Fuc(a1-2)Gal(b1-4)[Fuc(a1-3)]GlcNAc(b1-2)Man(a1-3)[Fuc(a1-2)Gal(b1-4)[Fuc(a1-3)]GlcNAc(b1-2)Man(a1-6)]Man(b1-4)GlcNAc(b1-4)[Fuc(a1-6)]GlcNAc
# Procedure, shortened: as §1
# [10] = molecular target: Fuc(a1-2)Gal(b1-4)[Fuc(a1-3)]GlcNAc(b1-2)[Fuc(a1-2)Gal(b1-4)[Fuc(a1-3)]GlcNAc(b1-4)]Man(a1-3)[Fuc(a1-2)Gal(b1-4)[Fuc(a1-3)]GlcNAc(b1-2)Man(a1-6)]Man(b1-4)GlcNAc(b1-4)GlcNAc
# Procedure, shortened: as §1
# [11] = molecular target: Fuc(a1-2)Gal(b1-4)[Fuc(a1-3)]GlcNAc(b1-3)Gal(b1-4)[Fuc(a1-3)]GlcNAc
# Procedure, shortened: as §1
# [12] = molecular target: Fuc(a1-2)Gal(b1-4)[Fuc(a1-3)]GlcNAc(b1-3)Gal(b1-4)[Fuc(a1-3)]GlcNAc(b1-3)Gal(b1-4)[Fuc(a1-3)]GlcNAc
# Procedure, shortened: as §1
# [13] = molecular target: Fuc(a1-2)Gal(b1-4)[Fuc(a1-3)]GlcNAc(b1-3)GalNAc
# Procedure, shortened: as §1
# [14] = molecular target: Fuc(a1-2)Gal(b1-4)[Fuc(a1-3)]GlcNAc(b1-3)[Neu5Ac(a2-6)Gal(b1-4)GlcNAc(b1-6)]Gal(b1-4)Glc
# Procedure, shortened: as §1
# [15] = molecular target: Fuc(a1-2)Gal3S(b1-4)GlcNAc
# Procedure, shortened: as §1
# [16] = molecular target: Fuc(a1-2)Gal6S(b1-3)GlcNAc
# Procedure, shortened: as §1
# [17] = molecular target: Fuc(a1-2)Gal6S(b1-3)GlcNAc6S
# Procedure, shortened: as §1
# [18] = molecular target: Fuc(a1-2)Gal6S(b1-4)Glc
# Procedure, shortened: as §1
# [19] = molecular target: Fuc(a1-2)Gal6S(b1-4)Glc6S
# Procedure, shortened: as §1
# [20] = molecular target: Fuc(a1-2)[Gal(a1-3)]Gal
# Procedure, shortened: as §1
# [21] = molecular target: Fuc(a1-2)[Gal(a1-3)]Gal(b1-3)GalNAc
# Procedure, shortened: as §1
# [22] = molecular target: Fuc(a1-2)[Gal(a1-3)]Gal(b1-3)GalNAc(b1-3)Gal(a1-4)Gal(b1-4)Glc
# Procedure, shortened: as §1
# [23] = molecular target: Fuc(a1-2)[Gal(a1-3)]Gal(b1-3)GlcNAc
# Procedure, shortened: as §1
# [24] = molecular target: Fuc(a1-2)[Gal(a1-3)]Gal(b1-3)GlcNAc(b1-2)Man(a1-3)[Fuc(a1-2)[Gal(a1-3)]Gal(b1-3)GlcNAc(b1-2)Man(a1-6)]Man(b1-4)GlcNAc(b1-4)GlcNAc
# Procedure, shortened: as §1
# [25] = molecular target: Fuc(a1-2)[Gal(a1-3)]Gal(b1-3)GlcNAc(b1-2)Man(a1-3)[Fuc(a1-2)[Gal(a1-3)]Gal(b1-3)GlcNAc(b1-2)Man(a1-6)]Man(b1-4)GlcNAc(b1-4)[Fuc(a1-6)]GlcNAc
# Procedure, shortened: as §1
# [26] = molecular target: Fuc(a1-2)[Gal(a1-3)]Gal(b1-3)GlcNAc(b1-3)GalNAc
# Procedure, shortened: as §1
# [27] = molecular target: Fuc(a1-2)[Gal(a1-3)]Gal(b1-3)GlcNAc(b1-6)GalNAc
# Procedure, shortened: as §1
# [28] = molecular target: Fuc(a1-2)[Gal(a1-3)]Gal(b1-4)Glc
# Procedure, shortened: as §1
# [29] = molecular target: Fuc(a1-2)[Gal(a1-3)]Gal(b1-4)GlcNAc
# Procedure, shortened: as §1
# [30] = molecular target: Fuc(a1-2)[Gal(a1-3)]Gal(b1-4)GlcNAc(b1-2)Man
# Procedure, shortened: as §1
binder,measurement,setting,value
"CD4 (Rattus norvegicus), P05540 (protein) MCRGFSFRHLLPLLLLQLSKLLVVTQGSTSITAYKSEGESAEFSFPLNLGEESLQGELRWKAEKAPSSQSWITFSLKNQKVSVQKSTSNPKFQLSETLPLTLQIPQVSLQFAGSGNLTLTLDRGILYQEVNLVVMKVTQPDSNTLTCEVMGPTSPKMRLILKQENQEARVSRQEKVIQVQAPEAGVWQCLLSEGEEVKMDSKIQVLSKGLNSGGGSGGGTGGGDLAPQMLRELQETNAALQDVRELLRQQVKEITFLKNTVMECDACGLDRNLPPLAPLGPHPETLVKVKDAEDQLGARVGYIELDLNSGKILESFRPEERFPMMSTFKVLLCGAVLSRIDAGQEQLGRRIHYSQNDLVEYSPVTEKHLTDGMTVRELCSAAITMSDNTAANLLLTTIGGPKELTAFLHNMGDHVTRLDRWEPELNEAIPNDERDTTMPVAMATTLRKLLTGELLTLASRQQLIDWMEADKVAGPLLRSALPAGWFIADKSGAGERGSRGIIAALGPDGKPSRIVVIYTTGSQATMDERNRQIAEIGASLIKHW",glycan array binding signal (z-score),[1],0.697
same,glycan array binding signal (z-score),[2],-0.758
same,glycan array binding signal (z-score),[3],0.968
same,glycan array binding signal (z-score),[4],-0.242
same,glycan array binding signal (z-score),[5],-0.381
same,glycan array binding signal (z-score),[6],-0.816
same,glycan array binding signal (z-score),[7],0.201
same,glycan array binding signal (z-score),[8],-0.219
same,glycan array binding signal (z-score),[9],-0.032
same,glycan array binding signal (z-score),[10],-0.141
same,glycan array binding signal (z-score),[11],-0.822
same,glycan array binding signal (z-score),[12],1.16
same,glycan array binding signal (z-score),[13],0.857
same,glycan array binding signal (z-score),[14],0.682
same,glycan array binding signal (z-score),[15],0.124
same,glycan array binding signal (z-score),[16],-1.13
same,glycan array binding signal (z-score),[17],-0.318
same,glycan array binding signal (z-score),[18],2.49
same,glycan array binding signal (z-score),[19],-0.572
same,glycan array binding signal (z-score),[20],-1.05
same,glycan array binding signal (z-score),[21],0.079
same,glycan array binding signal (z-score),[22],-0.166
same,glycan array binding signal (z-score),[23],0.175
same,glycan array binding signal (z-score),[24],0.253
same,glycan array binding signal (z-score),[25],-1.13
same,glycan array binding signal (z-score),[26],1.08
same,glycan array binding signal (z-score),[27],0.261
same,glycan array binding signal (z-score),[28],-1.27
same,glycan array binding signal (z-score),[29],-1.39
same,glycan array binding signal (z-score),[30],-1.08

# Quoted at random: 2 records from the list, in no set order.
binder,measurement,setting,value
"CD4 (Rattus norvegicus), P05540 (protein) MCRGFSFRHLLPLLLLQLSKLLVVTQGSTSITAYKSEGESAEFSFPLNLGEESLQGELRWKAEKAPSSQSWITFSLKNQKVSVQKSTSNPKFQLSETLPLTLQIPQVSLQFAGSGNLTLTLDRGILYQEVNLVVMKVTQPDSNTLTCEVMGPTSPKMRLILKQENQEARVSRQEKVIQVQAPEAGVWQCLLSEGEEVKMDSKIQVLSKGLNSGGGSGGGTGGGDLAPQMLRELQETNAALQDVRELLRQQVKEITFLKNTVMECDACGLDRNLPPLAPLGPHPETLVKVKDAEDQLGARVGYIELDLNSGKILESFRPEERFPMMSTFKVLLCGAVLSRIDAGQEQLGRRIHYSQNDLVEYSPVTEKHLTDGMTVRELCSAAITMSDNTAANLLLTTIGGPKELTAFLHNMGDHVTRLDRWEPELNEAIPNDERDTTMPVAMATTLRKLLTGELLTLASRQQLIDWMEADKVAGPLLRSALPAGWFIADKSGAGERGSRGIIAALGPDGKPSRIVVIYTTGSQATMDERNRQIAEIGASLIKHW",glycan array binding signal (z-score),[11],-0.822
same,glycan array binding signal (z-score),[9],-0.032
